Measured values as given in US20260053800A1 (Veradermics, Incorporated, priority 2024, published 2026).
At least one compound was matched to its structure with a doubt left.

Experiment: Case studies, oral minoxidil in male patients with androgenetic alopecia (blood pressure, heart rate, hair growth)
Settings: person

Nc1cc(N2CCCCC2)nc(N)[n+]1[O-] [minoxidil]
improvement in androgenetic alopecia (patient reported) (0.625 mg four times a day): improvement in their androgenetic alopecia with the subjective improvement in hair thickness and hair density | improvement in androgenetic alopecia (patient reported) (1.25 mg QID): improvement in their androgenetic alopecia with subjective improvement in hair thickness and hair density
